Results published in paper PMC12090556.
No constants are given. Whether binding was seen depends on the method and setting. Binding seen in cells or lysates may run through a third protein. Some entries that bind do so weakly or less than the wild type. Where a sequence is shown, tags or fusion partners need not be part of it.

Amino acid sequences for entries named in this document (tags omitted). A change or cut given only in a name is not applied to a line headed by its entry. Residues count along the entry.
UniProt P08581: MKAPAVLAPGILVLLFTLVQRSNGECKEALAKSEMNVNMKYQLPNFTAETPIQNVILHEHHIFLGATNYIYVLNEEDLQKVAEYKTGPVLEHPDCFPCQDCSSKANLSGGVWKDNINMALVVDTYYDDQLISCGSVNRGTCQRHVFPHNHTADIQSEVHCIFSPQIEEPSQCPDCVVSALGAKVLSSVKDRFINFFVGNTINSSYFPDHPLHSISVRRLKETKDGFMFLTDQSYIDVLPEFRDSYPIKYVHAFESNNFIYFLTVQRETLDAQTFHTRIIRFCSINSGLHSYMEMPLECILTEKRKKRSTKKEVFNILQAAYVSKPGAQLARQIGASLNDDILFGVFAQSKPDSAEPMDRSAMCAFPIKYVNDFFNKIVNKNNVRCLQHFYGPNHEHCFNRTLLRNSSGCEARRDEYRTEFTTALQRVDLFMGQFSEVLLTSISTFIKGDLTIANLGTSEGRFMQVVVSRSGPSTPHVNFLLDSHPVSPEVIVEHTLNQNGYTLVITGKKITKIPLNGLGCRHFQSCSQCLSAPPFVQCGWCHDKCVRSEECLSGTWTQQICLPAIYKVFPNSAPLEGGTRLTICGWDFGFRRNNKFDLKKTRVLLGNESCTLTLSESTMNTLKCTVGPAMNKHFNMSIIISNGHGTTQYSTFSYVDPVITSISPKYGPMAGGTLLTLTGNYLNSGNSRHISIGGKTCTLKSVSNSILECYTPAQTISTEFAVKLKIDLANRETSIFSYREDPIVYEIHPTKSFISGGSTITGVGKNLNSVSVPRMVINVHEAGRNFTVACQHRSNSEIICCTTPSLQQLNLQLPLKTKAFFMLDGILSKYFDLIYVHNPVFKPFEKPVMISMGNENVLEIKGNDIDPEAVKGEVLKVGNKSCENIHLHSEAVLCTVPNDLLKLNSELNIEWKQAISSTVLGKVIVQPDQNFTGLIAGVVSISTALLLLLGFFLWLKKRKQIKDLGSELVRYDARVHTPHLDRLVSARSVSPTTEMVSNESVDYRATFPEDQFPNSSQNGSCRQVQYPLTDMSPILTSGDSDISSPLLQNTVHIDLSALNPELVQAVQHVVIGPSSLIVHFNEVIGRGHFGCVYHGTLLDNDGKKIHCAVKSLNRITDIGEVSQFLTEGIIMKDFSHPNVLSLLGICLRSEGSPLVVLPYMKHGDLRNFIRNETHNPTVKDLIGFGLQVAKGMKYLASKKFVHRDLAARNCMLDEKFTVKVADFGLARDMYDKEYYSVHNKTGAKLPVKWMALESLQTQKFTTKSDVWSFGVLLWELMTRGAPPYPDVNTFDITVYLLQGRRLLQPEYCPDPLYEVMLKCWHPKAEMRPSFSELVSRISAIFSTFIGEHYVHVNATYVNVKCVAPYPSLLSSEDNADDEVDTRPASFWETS
c-Met (human (endogenous in HepG2)): residues 25-1390 of P08581

Columns and labels:
LgBiT-tagged HHLA2 = target: T1, LgBiT-tagged HHLA2 (UniProt Q9UM44); experiment: split reporter; split-luciferase complementation; indicated amounts of recombinant SmBiT-tagged ExD protein added to HEK293 cells expressing the LgBiT-tagged partner; luminescence measured; only the binder purified
T1 sequence: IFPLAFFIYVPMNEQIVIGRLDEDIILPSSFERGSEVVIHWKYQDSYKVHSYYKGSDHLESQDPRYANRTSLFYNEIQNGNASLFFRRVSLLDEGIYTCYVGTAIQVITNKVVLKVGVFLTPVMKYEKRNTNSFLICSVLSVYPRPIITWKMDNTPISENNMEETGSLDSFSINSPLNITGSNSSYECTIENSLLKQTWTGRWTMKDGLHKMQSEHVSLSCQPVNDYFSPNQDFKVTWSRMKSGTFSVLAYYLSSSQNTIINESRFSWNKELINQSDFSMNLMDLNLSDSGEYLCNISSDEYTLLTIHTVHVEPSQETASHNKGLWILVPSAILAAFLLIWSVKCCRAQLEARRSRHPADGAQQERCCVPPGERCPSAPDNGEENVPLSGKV

HHLA2-HA = target: T2, HHLA2-HA (UniProt Q9UM44); experiment: co-IP; HepG2 and Hep3B cells with or without HHLA2 overexpression; anti-HA antibody and reciprocal; also after Tunicamycin treatment of HepG2 cells
T2 sequence (chain, glycosylated (N-linked; sites not named)): T1 sequence

[1] = target: c-Met (human (endogenous in HepG2)) (UniProt P08581); experiment: as above

For “c-MET-ExD-SmBit-6His (from UniProt P08581 25-932) (domain or fragment)”, the binding (LgBiT-tagged HHLA2) was “binds”.

With “c-Met (from UniProt P08581 25-1390) (receptor)” the binding (HHLA2-HA) was “binds”.

B1: HHLA2-HA (protein, UniProt Q9UM44 23-414)
chain: T1 sequence
modifications: glycosylated (N-linked; sites not named)
B1 was tested, and the binding [1] was “binds”.
